PubChem BioAssay AID504791 | Drosophila RNAi Screening Center | 2011
The screen tested about 23,000 reagents; this is an unselected part of those that have a named target and a result. Of all reagents, 199 (0.86%) are marked active. 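Plate-scaled ratios behind the calls are not deposited; printed light signals are raw; many rows marked increased or decreased are still called inactive.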 A number with no mark means an inactive call. The numbers tell different reagents against one gene apart. Not given: the direction of the score.

Assay: 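Genes of the fly required for silencing by miRNA, siRNA or endo-siRNA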 (primary screen)
System: Drosophila S2-derived reporter cells
Reagent: long dsRNA against Drosophila genes, about 150-250 ng dsRNA per well (siRNA assay); about 80-120 ng (miRNA assay)
Duration: about 5 days (siRNA assay); about 4 days (miRNA assay)
Challenge: copper sulfate induction of reporters: 25 µM (siRNA assay); 200 mM stated (miRNA assay), 1-2 days before reading
Detection: 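Per-well ratio of Renilla over firefly light, expressed relative to that plate's average ratio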
Active means: 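a well was a first-pass pick when its plate-scaled ratio rose above 1.5 (siRNA assay) or 1.6 (miRNA assay), or dropped below 0.6; a gene counted only if two separate dsRNAs agreed on retest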

no.	gene	reagent no.	stable siRNA reporter change	miRNA reporter change	stable assay Renilla, run 1 (luminescence)	stable assay firefly, run 1 (luminescence)
1	CG10254	1			10927	3.72e5
2	CG15530	1			6211	4.44e5
3	Sodh1	1			8039	3.93e5
4	CSN3	1		reporter ratio lowered past the hit cutoff (active)	4356	2.63e5
5	beat-IIIc	1			7383	5.44e5
6	beat-IIIc	2			7531	4.78e5
7	Est-Q	1			9193	3.96e5
8	CG33007 (retired record)	1			9168	8.44e5
9	kat-60L1	1			7384	4.40e5
10	CG31288	1			8312	4.11e5
11	CG13855	1			8078	3.86e5
12	CG13855	2		reporter ratio raised past the hit cutoff		
13	mnd	1			7527	3.30e5
14	Tsp5D	1			5546	3.08e5
15	CG5953	1			5551	4.82e5
16	CG5953	2			7626	2.78e5
17	CG1416	1			10243	3.79e5
18	Cpr12A	1			5643	4.36e5
19	CG2182	1			7638	3.94e5
20	mRpS34	1			7160	4.12e5
21	CG9673	1			5619	5.28e5
22	Msp300	1			5207	4.01e5
23	Msp300	2			5587	4.26e5
24	Msp300	3			6490	4.90e5
25	Msp300	4			6311	4.70e5
26	Msp300	5			8752	3.66e5
27	Msp300	6			11101	3.59e5
28	Msp300	7			7150	3.90e5
29	halo	1			6518	3.59e5
30	faf	1			5452	2.77e5
31	Rtca	1			8691	5.42e5
32	Ugt35C1	1			8018	4.14e5
33	gpp	1	reporter ratio raised past the hit cutoff (active)		6955	2.54e5
34	gpp	2			6550	2.96e5

Looked up above.
For “stable assay Renilla, run 1 (luminescence)”, faf reads 5452
Entry for beat-IIIc #1 under “stable assay Renilla, run 1 (luminescence)”: 7383
Result of Msp300 #7 under “stable assay firefly, run 1 (luminescence)”: 3.90e5
